The assay concerns L1210 leukemia ip in BDF1 mice, survival T/C. The assay is described as follows: NCI In Vivo Anticancer Drug Screen. Data for tumor model L1210 Leukemia (intraperitoneal) in B6D2F1 (BDF1) mice. The conditions noted are these: T/C endpoint: mean survival time, higher T/C = longer survival.
Setting [1] is: dose: 100.0 mg/kg/injection, schedule: Q04DX003 (ip), vehicle: Klucel (hydroxypropylcellulose) (HPC).
Setting [2] is: dose: 400.0 mg/kg/injection, schedule: Q01DX001 (ip), vehicle: saline.
[3] abbreviates: dose: 200.0 mg/kg/injection, schedule: Q01DX001 (ip), vehicle: saline.
Where [4] appears, read: dose: 200.0 mg/kg/injection, schedule: Q01DX009 (ip), vehicle: Klucel (hydroxypropylcellulose) (HPC).
[5] abbreviates: dose: 400.0 mg/kg/injection, schedule: Q01DX009 (ip), vehicle: Klucel (hydroxypropylcellulose) (HPC).
[6] abbreviates: dose: 400.0 mg/kg/injection, schedule: Q04DX003 (ip), vehicle: Klucel (hydroxypropylcellulose) (HPC).
The mark [7] stands for this setting: dose: 400.0 mg/kg/injection, schedule: Q04DX003 (ip), vehicle: saline.
Setting [8] is: dose: 150.0 mg/kg/injection, schedule: Q01DX001 (ip), vehicle: saline.
[9] abbreviates: dose: 300.0 mg/kg/injection, schedule: Q01DX001 (ip), vehicle: saline.

The record followed here is PubChem BioAssay AID248 (DTP/NCI, 2004).

The list is a part of this screen's results and no random one: it is rich in T/C values a quarter to a half above the control, in often repeated tests (any T/C) and in doses without a T/C. Other doses and runs of a compound stand elsewhere. T/C gives the treated animals as a percentage of the vehicle group. Some doses have a count of surviving animals in place of a T/C: the source files T/C as zero there, which appears to mark a toxic dose or a test without result, not a measured value. Some survivor counts are full or nearly so, which does not show that the dose was tolerated: survival well below the control is almost never listed, so the zero probably covers shortened survival too. Survivors were counted at the toxicity check, usually on the fifth day, unless a day is given; later deaths do not show. Schedule codes are those of the source, taken here to give the interval after Q, in days (D) or hours (H), and the number of doses after X. Some doses were run more than once; the values are given in rising order. Some structures stand for samples that the source files as different forms (salt, stereo form or complex); doses refer to the form tested. For survival time, this PubChem deposit counts one and a half times the control or more as active, and values a quarter to a half above the control carry no call in these data; other NCI protocols may use other cut-offs. Some T/C values are followed by the survivors on the day toxicity was checked, most often the fifth; without a count, all were alive then.

Consider `CNC1=C(N2CC2)C(=O)C(NC)=C(N2CC2)C1=O`, for which the T/C is, setting by setting: (dose: 0.09 mg/kg/injection, schedule: Q01DX009 (ip), vehicle: Klucel (hydroxypropylcellulose) (HPC)) 126 and 137 % of control; (dose: 0.09 mg/kg/injection, schedule: Q04DX003 (ip), vehicle: Klucel (hydroxypropylcellulose) (HPC)) 127 % of control; (dose: 0.19 mg/kg/injection, schedule: Q01DX009 (ip), vehicle: Klucel (hydroxypropylcellulose) (HPC)) 148 % of control; (dose: 0.19 mg/kg/injection, schedule: Q04DX003 (ip), vehicle: Klucel (hydroxypropylcellulose) (HPC)) 125 and 134 % of control; (dose: 0.39 mg/kg/injection, schedule: Q04DX003 (ip), vehicle: Klucel (hydroxypropylcellulose) (HPC)) 128 % of control; (dose: 0.4 mg/kg/injection, schedule: Q01DX009 (ip), vehicle: saline) 131 % of control. For the same compound, the T/C (dose: 0.4 mg/kg/injection, schedule: Q04DX003 (ip), vehicle: saline) was 129 % of control and the T/C (dose: 0.75 mg/kg/injection, schedule: Q01DX001 (ip), vehicle: saline) is 134 % of control [5 of 6 alive]. For the same compound, the survivor count was 3 of 6 and 6 of 6 (dose: 0.78 mg/kg/injection, schedule: Q01DX009 (ip), vehicle: Klucel (hydroxypropylcellulose) (HPC)); 4 of 6 (dose: 1.5 mg/kg/injection, schedule: Q01DX001 (ip), vehicle: saline); 1 of 6 and 3 of 6 (dose: 1.56 mg/kg/injection, schedule: Q04DX003 (ip), vehicle: Klucel (hydroxypropylcellulose) (HPC)); 3 of 6 (dose: 3.0 mg/kg/injection, schedule: Q01DX001 (ip), vehicle: saline); 2 of 6 (dose: 3.12 mg/kg/injection, schedule: Q04DX003 (ip), vehicle: Klucel (hydroxypropylcellulose) (HPC)); 0 of 6 (dose: 6.25 mg/kg/injection, schedule: Q04DX003 (ip), vehicle: Klucel (hydroxypropylcellulose) (HPC)). The survivor count runs as follows: (dose: 12.5 mg/kg/injection, schedule: Q04DX003 (ip), vehicle: Klucel (hydroxypropylcellulose) (HPC)) 5 of 6; (dose: 25.0 mg/kg/injection, schedule: Q04DX003 (ip), vehicle: Klucel (hydroxypropylcellulose) (HPC)) 0 of 6; (dose: 50.0 mg/kg/injection, schedule: Q04DX003 (ip), vehicle: Klucel (hydroxypropylcellulose) (HPC)) 0 of 6; under setting [1], 0 of 6.
With `Cc1ccc([I+]c2ccccc2C(=O)[O-])c(C)c1`, the survivor count under setting [2] is 2 of 4.
With `CC(C)(C)C1CCCC(=O)C1` (centres undefined), the survivor count under setting [3] is given as 1 of 4 and the survivor count under setting [2] was 0 of 4.
On to `CCCCCC(C)NCC(C)(C)O` (centres undefined), for which the survivor count reads like this: (dose: 150.0 mg/kg/injection, schedule: Q01DX001 (ip), vehicle: acid diluted with saline) 3 of 6; (dose: 300.0 mg/kg/injection, schedule: Q01DX001 (ip), vehicle: acid diluted with saline) 0 of 6.
For `Cc1ccc(C)c(C[P+](c2ccccc2)(c2ccccc2)c2ccccc2)c1`, the survivor count is 2 of 6 (dose: 30.0 mg/kg/injection, schedule: Q01DX001 (ip), vehicle: saline) and 0 of 6 (dose: 60.0 mg/kg/injection, schedule: Q01DX001 (ip), vehicle: saline).
As for `CCOC(=O)/C(=C\c1ccccc1)P(=O)(OCC)c1ccccc1` (centres undefined), the survivor count was 3 of 6 (dose: 100.0 mg/kg/injection, schedule: Q01DX009 (ip), vehicle: Klucel (hydroxypropylcellulose) (HPC)); 1 of 6 under setting [4]; 0 of 6 under setting [5]; 3 of 6 under setting [6].
Consider `CCN(CC)CCNC(Cc1ccccc1)c1cccc(OC)c1` (centres undefined), for which the survivor count (dose: 200.0 mg/kg/injection, schedule: Q01DX001 (ip), vehicle: carboxymethylcellulose (CMC)) is recorded as 2 of 4 and the survivor count (dose: 400.0 mg/kg/injection, schedule: Q01DX001 (ip), vehicle: carboxymethylcellulose (CMC)) is 0 of 4.
Consider `CS(=O)(=O)c1ccc(F)c([N+](=O)[O-])c1`, for which the survivor count is, setting by setting: under setting [1], 2 of 3; (dose: 200.0 mg/kg/injection, schedule: Q04DX003 (ip), vehicle: Klucel (hydroxypropylcellulose) (HPC)) 0 of 3; under setting [6], 0 of 3.
As for `c1ccc2c(c1)ccc1cc3cc(NCCCCNc4ccc5nc6c(ccc7ccccc76)cc5c4)ccc3nc12`, the survivor count runs as follows: (dose: 25.0 mg/kg/injection, schedule: Q01DX009 (ip), vehicle: saline with Tween-80) 3 of 3; (dose: 50.0 mg/kg/injection, schedule: Q01DX009 (ip), vehicle: saline with Tween-80) 0 of 3; (dose: 100.0 mg/kg/injection, schedule: Q01DX009 (ip), vehicle: saline with Tween-80) 0 of 3; (dose: 200.0 mg/kg/injection, schedule: Q01DX009 (ip), vehicle: saline with Tween-80) 0 of 3.
Turning to `O=c1[nH]c2nc(Cl)c(Cl)nc2[nH]1`, under setting [7], the survivor count is 1 of 6.
For `C=COC(=O)N(C)C`, the survivor count under setting [2] is given as 2 of 6.
Take `Cc1cc2c(cc1C)N(C(=O)CCl)CC(=O)N2`: the survivor count was 0 of 6 under setting [8] and 0 of 6 under setting [9].
With `CC(=O)N(N=O)c1ccc(N(N=O)C(C)=O)cc1`, the survivor count runs as follows: (dose: 40.0 mg/kg/injection, schedule: Q01DX001 (ip), vehicle: saline) 0 of 4; (dose: 50.0 mg/kg/injection, schedule: Q01DX001 (ip), vehicle: saline) 2 of 4; (dose: 80.0 mg/kg/injection, schedule: Q01DX001 (ip), vehicle: saline) 0 of 4; (dose: 100.0 mg/kg/injection, schedule: Q01DX001 (ip), vehicle: saline) 0 of 4; under setting [3], 0 of 4; under setting [2], 0 of 4.
For `CCCCN1C(=O)C(=O)N(c2ccccc2C(F)(F)F)C1=O`, the survivor count was 3 of 3 under setting [4] and 3 of 3 under setting [5].
With `CC(N)Cc1ccccc1` (centres undefined), the T/C (dose: 9.37 mg/kg/injection, schedule: Q04DX003 (ip), vehicle: saline) is 136 % of control. The survivor count was 1 of 6 (dose: 74.96 mg/kg/injection, schedule: Q03HX024 (ip), vehicle: saline); 3 of 6 (dose: 75.0 mg/kg/injection, schedule: Q01DX001 (ip), vehicle: saline); 5 of 6 (dose: 75.0 mg/kg/injection, schedule: Q01DX009 (ip), vehicle: saline); 5 of 6 (dose: 100.0 mg/kg/injection, schedule: Q01DX009 (ip), vehicle: saline); 0 of 6 (dose: 149.92 mg/kg/injection, schedule: Q03HX024 (ip), vehicle: saline); 0 of 6 under setting [8]. Moreover, the survivor count is recorded as 0 of 4 (dose: 150.0 mg/kg/injection, schedule: Q04DX003 (ip), vehicle: saline); 0 of 4 (dose: 200.0 mg/kg/injection, schedule: Q04DX003 (ip), vehicle: saline); 0 of 6 under setting [9]; 0 of 4 under setting [7].
On to `O=C1CN=C(c2ccccn2)c2cc(Cl)ccc2N1`, for which the survivor count (dose: 600.0 mg/kg/injection, schedule: Q01DX009 (ip), vehicle: saline) is recorded as 0 of 10.
`CCCCN(C=S)CCCC`: the survivor count runs as follows: (dose: 200.0 mg/kg/injection, schedule: Q04DX003 (ip), vehicle: saline with Tween-80) 0 of 6; (dose: 400.0 mg/kg/injection, schedule: Q04DX003 (ip), vehicle: saline with Tween-80) 0 of 6.
